Measurements from patent US20090062206A1 (UNIVERSITY OF SOUTH FLORIDA, priority 2006, published 2009).
Some results were stated once for a whole list of compounds, not compound by compound.

Test system: human renal-cell carcinoma cells (ATCC CRL-2175)
Experiment: Decrease in number of human renal-cell carcinoma cells (cell counting on coverslips)
Assay type: cell-based
Settings: 100 μM, 24 hours
Experimental: A cell line (ATCC number CRL-2175) of human renal-cell carcinoma cells were purchased from American Type Culture Collection (ATCC, Manassas, Va.). This renal cancer cell line was established by A. Leibovitz in 1972 from a renal-cell carcinoma removed from a person with blood type O, Rh+.
Propagation of these renal cancer cells was in Leibovitz's L-15 medium supplemented with 10% fetal bovine serum (Atlanta Biologicals, Lawrenceville, Ga.) at a temperature of 37° C. in a CO2 free environment as recommended by the ATCC. Cells were dispensed in new flasks with subculturing two to three times per week.
After the renal-cell carcinoma cells were subcultured for 24 hours they were then seeded to coverslips in 24-well plates (Nunclon™, Roskilde, Denmark) with 1 mL of the above media. There were 65,000 cells seeded to each coverslip. […] The number of renal carcinoma cells were then counted with a cell counter (Thomas Scientific Swedesboro, N. J.) evaluating ten fields of the microscope slide at x40 along the X-axis with an Olympus BH-2 microscope (Atlanta, Ga.). […]
The number of renal carcinoma cells after 24 hours without the addition of any of the peptide hormones averaged 89±7 cells per high powered field when ten fields of the coverslip were evaluated at ×40 along the X-axis with an Olympus BH2 microscope. […]

Substance	decrease in number of renal carcinoma cells
LANP: long acting natriuretic peptide, peptide hormone within the 126 amino acid ANP prohormone (NPMYNAVSNADLMDFKNLLDHLEEKMPLED; Long-acting natriuretic peptide; UniProt P01160 26-55, looked up)	70-74%
kaliuretic peptide: peptide hormone within the 126 amino acid ANP prohormone synthesized in the heart (SSDRSALLKSKLRALLTAPR; Kaliuretic peptide; UniProt P01160 104-123, looked up)	70-74%
